Measured values as given in paper PMC9947773, “Modeling C3 glomerulopathies: C3 convertase regulation on an extracellular matrix surface” (Frontiers in Immunology, 2022).
No constants are given. Whether binding was seen depends on the method and setting. Some binding calls cover weakened binding; strength is not graded here.

By UniProt entry, the sequences of proteins in these tests, tags left out. Where a name states a change or a piece, a line headed by the entry shows the natural chain unless it says otherwise. Chains listed by the source or under a name are the forms on record and can include a tag or linker. Residues count along the entry.
UniProt P01024: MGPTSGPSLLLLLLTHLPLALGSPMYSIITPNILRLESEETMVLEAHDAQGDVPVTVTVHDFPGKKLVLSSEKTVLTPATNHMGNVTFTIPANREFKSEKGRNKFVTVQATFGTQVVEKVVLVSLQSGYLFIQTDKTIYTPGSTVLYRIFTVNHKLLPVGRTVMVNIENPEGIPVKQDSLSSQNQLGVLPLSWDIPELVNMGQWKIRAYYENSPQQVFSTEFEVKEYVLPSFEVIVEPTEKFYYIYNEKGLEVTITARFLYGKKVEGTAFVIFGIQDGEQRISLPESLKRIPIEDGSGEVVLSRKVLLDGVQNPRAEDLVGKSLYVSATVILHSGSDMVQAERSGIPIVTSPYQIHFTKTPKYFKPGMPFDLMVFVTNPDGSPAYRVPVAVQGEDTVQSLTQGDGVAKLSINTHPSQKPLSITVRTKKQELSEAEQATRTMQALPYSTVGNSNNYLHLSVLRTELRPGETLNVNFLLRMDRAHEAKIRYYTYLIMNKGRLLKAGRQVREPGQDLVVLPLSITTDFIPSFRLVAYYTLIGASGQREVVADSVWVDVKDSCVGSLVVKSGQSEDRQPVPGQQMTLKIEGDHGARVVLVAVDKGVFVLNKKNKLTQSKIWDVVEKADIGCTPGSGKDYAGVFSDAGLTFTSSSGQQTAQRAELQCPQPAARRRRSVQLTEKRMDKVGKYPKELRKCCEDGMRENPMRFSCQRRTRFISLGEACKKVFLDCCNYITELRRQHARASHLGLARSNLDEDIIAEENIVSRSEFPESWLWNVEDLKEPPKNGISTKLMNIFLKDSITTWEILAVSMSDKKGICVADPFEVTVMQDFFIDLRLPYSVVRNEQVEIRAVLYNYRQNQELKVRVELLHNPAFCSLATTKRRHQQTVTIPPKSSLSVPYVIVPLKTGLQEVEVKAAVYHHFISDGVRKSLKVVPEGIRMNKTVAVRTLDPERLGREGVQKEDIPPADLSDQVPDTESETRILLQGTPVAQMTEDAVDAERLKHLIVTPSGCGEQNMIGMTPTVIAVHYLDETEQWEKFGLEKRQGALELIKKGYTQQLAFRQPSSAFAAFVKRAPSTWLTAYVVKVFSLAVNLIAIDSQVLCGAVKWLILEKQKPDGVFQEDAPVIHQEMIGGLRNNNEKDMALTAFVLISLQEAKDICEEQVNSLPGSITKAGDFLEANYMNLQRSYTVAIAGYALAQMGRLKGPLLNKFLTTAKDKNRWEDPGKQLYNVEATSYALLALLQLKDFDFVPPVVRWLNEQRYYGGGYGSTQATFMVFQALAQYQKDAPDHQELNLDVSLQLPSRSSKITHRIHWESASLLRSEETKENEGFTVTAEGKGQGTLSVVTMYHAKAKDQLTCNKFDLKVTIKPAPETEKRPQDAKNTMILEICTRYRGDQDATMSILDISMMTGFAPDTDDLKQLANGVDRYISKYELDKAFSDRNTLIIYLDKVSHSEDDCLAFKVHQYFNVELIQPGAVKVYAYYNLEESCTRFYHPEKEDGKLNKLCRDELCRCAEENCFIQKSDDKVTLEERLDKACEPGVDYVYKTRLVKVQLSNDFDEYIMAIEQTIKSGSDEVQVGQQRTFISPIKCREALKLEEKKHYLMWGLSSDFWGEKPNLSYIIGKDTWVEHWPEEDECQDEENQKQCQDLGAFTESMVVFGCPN
Recombinant WT Factor H (FH his) (P08603, residues 19-1231): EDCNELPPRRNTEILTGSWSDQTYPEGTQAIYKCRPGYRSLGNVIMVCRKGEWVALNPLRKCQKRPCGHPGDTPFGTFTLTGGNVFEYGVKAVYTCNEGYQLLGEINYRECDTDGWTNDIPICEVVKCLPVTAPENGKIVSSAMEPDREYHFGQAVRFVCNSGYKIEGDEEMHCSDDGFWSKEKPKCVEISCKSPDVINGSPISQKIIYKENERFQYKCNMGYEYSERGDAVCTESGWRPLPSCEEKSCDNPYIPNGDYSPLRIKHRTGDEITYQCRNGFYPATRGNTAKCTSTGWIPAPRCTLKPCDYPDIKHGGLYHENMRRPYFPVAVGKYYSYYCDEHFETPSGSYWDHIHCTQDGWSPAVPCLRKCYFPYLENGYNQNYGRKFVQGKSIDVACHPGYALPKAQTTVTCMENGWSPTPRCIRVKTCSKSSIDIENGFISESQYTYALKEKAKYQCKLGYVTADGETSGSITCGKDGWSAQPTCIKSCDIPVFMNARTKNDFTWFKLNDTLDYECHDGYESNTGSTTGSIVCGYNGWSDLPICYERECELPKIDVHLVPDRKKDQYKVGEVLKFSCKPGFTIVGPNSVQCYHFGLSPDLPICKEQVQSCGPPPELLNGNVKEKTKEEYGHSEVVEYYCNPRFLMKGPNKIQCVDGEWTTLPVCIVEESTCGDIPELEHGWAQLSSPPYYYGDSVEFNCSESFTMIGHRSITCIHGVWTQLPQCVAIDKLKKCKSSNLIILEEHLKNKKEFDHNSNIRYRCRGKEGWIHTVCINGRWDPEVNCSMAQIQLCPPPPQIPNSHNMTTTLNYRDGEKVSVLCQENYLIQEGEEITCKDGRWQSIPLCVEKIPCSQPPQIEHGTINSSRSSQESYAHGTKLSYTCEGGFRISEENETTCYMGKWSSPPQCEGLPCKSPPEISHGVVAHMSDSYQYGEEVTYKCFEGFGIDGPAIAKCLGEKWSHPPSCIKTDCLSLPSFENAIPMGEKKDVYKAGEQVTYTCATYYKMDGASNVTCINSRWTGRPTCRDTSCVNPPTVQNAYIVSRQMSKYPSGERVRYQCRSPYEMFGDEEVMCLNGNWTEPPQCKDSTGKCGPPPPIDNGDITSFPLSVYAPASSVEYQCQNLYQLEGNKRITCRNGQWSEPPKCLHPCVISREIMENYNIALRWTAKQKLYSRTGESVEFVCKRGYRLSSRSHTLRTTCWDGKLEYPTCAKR
Recombinant Factor H p.Arg53Cys (P08603, form named): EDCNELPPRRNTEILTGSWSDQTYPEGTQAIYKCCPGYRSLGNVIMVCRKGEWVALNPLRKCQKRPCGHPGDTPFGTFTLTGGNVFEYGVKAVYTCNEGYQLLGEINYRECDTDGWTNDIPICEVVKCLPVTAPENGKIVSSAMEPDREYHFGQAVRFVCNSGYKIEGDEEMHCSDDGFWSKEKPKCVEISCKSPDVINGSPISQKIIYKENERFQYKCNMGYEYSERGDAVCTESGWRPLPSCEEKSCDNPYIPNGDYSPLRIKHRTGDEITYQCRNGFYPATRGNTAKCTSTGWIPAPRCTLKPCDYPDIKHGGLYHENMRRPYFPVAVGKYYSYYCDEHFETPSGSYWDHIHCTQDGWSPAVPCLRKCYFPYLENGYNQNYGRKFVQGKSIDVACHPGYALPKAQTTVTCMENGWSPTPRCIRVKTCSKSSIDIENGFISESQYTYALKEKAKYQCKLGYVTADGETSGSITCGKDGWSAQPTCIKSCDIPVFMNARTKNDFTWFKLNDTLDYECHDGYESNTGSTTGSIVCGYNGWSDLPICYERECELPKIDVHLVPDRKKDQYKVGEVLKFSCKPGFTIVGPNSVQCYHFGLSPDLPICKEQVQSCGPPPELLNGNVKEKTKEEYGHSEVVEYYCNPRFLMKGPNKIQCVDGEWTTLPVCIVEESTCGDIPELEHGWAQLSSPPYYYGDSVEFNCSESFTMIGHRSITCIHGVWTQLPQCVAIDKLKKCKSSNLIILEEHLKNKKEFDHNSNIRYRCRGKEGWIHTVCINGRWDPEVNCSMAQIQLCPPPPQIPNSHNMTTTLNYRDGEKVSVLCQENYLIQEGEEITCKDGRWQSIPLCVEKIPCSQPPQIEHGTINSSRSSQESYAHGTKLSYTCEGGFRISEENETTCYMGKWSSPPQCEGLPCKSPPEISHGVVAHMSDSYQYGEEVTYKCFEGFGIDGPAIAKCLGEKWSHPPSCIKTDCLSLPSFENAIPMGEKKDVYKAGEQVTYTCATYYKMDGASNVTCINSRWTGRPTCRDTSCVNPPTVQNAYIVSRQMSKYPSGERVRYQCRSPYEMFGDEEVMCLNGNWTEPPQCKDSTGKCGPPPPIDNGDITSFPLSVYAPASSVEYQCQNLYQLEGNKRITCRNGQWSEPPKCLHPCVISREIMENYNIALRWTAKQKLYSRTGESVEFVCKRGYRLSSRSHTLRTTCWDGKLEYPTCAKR

Molecular target: T1, C3b (human, UniProt P01024 23-667; P01024 749-1663)
T1 construct: complement C3, human; beta chain of C3b; alpha' chain of C3b (alpha chain without C3a); Coated on MaxGel (ECM) in microtiter wells at 130 ug/ml; also called purified C3b; source: bought: Complement Technology Inc., purified
Assay: C3 convertase formation assay (C3CFA), elution and western blot for Bb; C3b coated on MaxGel; FB + FD with Factor H or a Factor H variant as reactant (22.5 ug/ml), 10 min at 37°C; washed x3; eluted; both purified

binding	Substance
binds	Recombinant Factor H p.Arg53Cys (from UniProt P08603 19-1231)
binds	Recombinant WT Factor H (FH his) (from UniProt P08603 19-1231)
